Measured values: US20030186355A1, “Methods for selecting and producing t cell peptide epitopes and vaccines incorporating said selected epitopes” (priority 2000, published 2003)

Tested on: 20S proteasomes
Test: Proteasome digestion assay of 26-mer synthetic peptide substrates, fragments analysed by electrospray mass spectrometry
Assay type: biochemical, mouse
Conditions: for amount of peptide fragment, relative percentage of the total intensity of the peptide fragments in the spectrum: fragments of Sendai or MCF 26-mer substrate; for Intensity as a percentage of the total amount of intensity of the peak fragments: fragments of substrates 5A Moloney, 5B AKV, 5C Friend MuLV
[1] = correct C-terminal residue of the CTL-epitope generated from the 26-mer substrate

## ILKDPVHGEFAPGNYPALWSYAMGVA [26-mer substrate, Sendai NP, reference compound]
  correct C-terminus: yes

## FNKSPWFTTLISTIM [proteasome fragment of MCF substrate]
Digestion time 4 h
  amount of peptide fragment, relative percentage of the total intensity of the peptide fragments in the spectrum: 6%

## TGRAYWKPSSSWDYITVD [proteasome fragment of substrate 5C]
Digestion time 1 h
  Intensity as a percentage of the total amount of intensity of the peak fragments: 21%
Digestion time 4 h
  Intensity as a percentage of the total amount of intensity of the peak fragments: 25%

## TGRAYWKPSSSDWFITV [proteasome fragment of substrate 5A]
Digestion time 1 h
  Intensity as a percentage of the total amount of intensity of the peak fragments: 18%

## ILKDPVHGEFAPGNYPAL [proteasome fragment of Sendai substrate]
Digestion time 1 h
  amount of peptide fragment, relative percentage of the total intensity of the peptide fragments in the spectrum: 46%
Digestion time 4 h
  amount of peptide fragment, relative percentage of the total intensity of the peptide fragments in the spectrum: 20%
Digestion time 24 h
  amount of peptide fragment, relative percentage of the total intensity of the peptide fragments in the spectrum: 38%

## REARVSSSPVNSLRNVVAIAAGIVVS [26-mer substrate, E. coli P9, reference compound]
[1]
  correct C-terminus: no

## AYWKPSSSWDYITVD [proteasome fragment of substrate 5C]
Digestion time 1 h
  Intensity as a percentage of the total amount of intensity of the peak fragments: 8%
Digestion time 4 h
  Intensity as a percentage of the total amount of intensity of the peak fragments: 20%

## GESRDLPSGQGINNLDNLRDYLDGSV [26-mer substrate, SV40 T, reference compound]
  correct C-terminus: yes

## PSSSWDFITV
Digestion time 1 h
  Intensity as a percentage of the total amount of intensity of the peak fragments: 23%
Digestion time 4 h
  Intensity as a percentage of the total amount of intensity of the peak fragments: 36%
Digestion time 24 h
  Intensity as a percentage of the total amount of intensity of the peak fragments: 28%

## YEPPEAGSEYTTIHYKYMCNSSCMGG [26-mer substrate, P53, reference compound]
[1]
  correct C-terminus: yes

## SWDYITVD [proteasome fragment of substrate 5C]
Digestion time 4 h
  Intensity as a percentage of the total amount of intensity of the peak fragments: 35%
Digestion time 24 h
  Intensity as a percentage of the total amount of intensity of the peak fragments: 69%

## PSSSWDYITV [proteasome fragment of substrate 5B]
Digestion time 4 h
  Intensity as a percentage of the total amount of intensity of the peak fragments: 17%
Digestion time 24 h
  Intensity as a percentage of the total amount of intensity of the peak fragments: 25%

## EFAPGNYPAL [proteasome fragment of Sendai substrate]
Digestion time 1 h
  amount of peptide fragment, relative percentage of the total intensity of the peptide fragments in the spectrum: 5%
Digestion time 4 h
  amount of peptide fragment, relative percentage of the total intensity of the peptide fragments in the spectrum: 7%

## DGPAGQAEPDRAHYNIVTFCCKCDST [26-mer substrate, HPV E7, reference compound]
  correct C-terminus: yes

## KDPVHGEFAPG [proteasome fragment of Sendai substrate]
Digestion time 4 h
  amount of peptide fragment, relative percentage of the total intensity of the peptide fragments in the spectrum: 9%

## FESQQGWFEGLFNKS [proteasome fragment of MCF substrate]
Digestion time 1 h
  amount of peptide fragment, relative percentage of the total intensity of the peptide fragments in the spectrum: 26%
Digestion time 4 h
  amount of peptide fragment, relative percentage of the total intensity of the peptide fragments in the spectrum: 22%
Digestion time 24 h
  amount of peptide fragment, relative percentage of the total intensity of the peptide fragments in the spectrum: 15%

## TGRAYWKPSSSWDFITVNNNLTSDQA [26-mer substrate, MuLV (Moloney), reference compound]
  correct C-terminus: yes
Listed as Moloney MuLV peptide substrate
  C-terminal cleavage site by the 20S proteasome: preferential cleavage after the C-terminal V
Listed as SA
  C-terminal cleavage site by the 20S proteasome: cleavage after V

## FESQQGWFEGLFNKSPWFTTL [proteasome fragment of MCF substrate]
Digestion time 1 h
  amount of peptide fragment, relative percentage of the total intensity of the peptide fragments in the spectrum: 5%
Digestion time 4 h
  amount of peptide fragment, relative percentage of the total intensity of the peptide fragments in the spectrum: 6%

## TGRASWKPSSSWDYITVSNNLTSDQA [26-mer substrate 5B, AKV MuLV, reference compound]
Digestion time 1 h
  Intensity as a percentage of the total amount of intensity of the peak fragments: 57%

## LISTIM
Digestion time 1 h
  amount of peptide fragment, relative percentage of the total intensity of the peptide fragments in the spectrum: 14%
Digestion time 4 h
  amount of peptide fragment, relative percentage of the total intensity of the peptide fragments in the spectrum: 14%

## APGNYPAL [proteasome fragment of Sendai substrate]
Digestion time 1 h
  amount of peptide fragment, relative percentage of the total intensity of the peptide fragments in the spectrum: 5%
Digestion time 4 h
  amount of peptide fragment, relative percentage of the total intensity of the peptide fragments in the spectrum: 12%

## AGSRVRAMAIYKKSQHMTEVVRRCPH [26-mer substrate, P53, reference compound]
  correct C-terminus: no

## ILKDPVHGEFAPG [proteasome fragment of Sendai substrate]
Digestion time 4 h
  amount of peptide fragment, relative percentage of the total intensity of the peptide fragments in the spectrum: 8%

## SSWDFITV [reference compound]
  generation of peptide fragment by the 20S proteasome: only generated in very low amounts

## KFGIETMYPALGLHEFAGELSTLESL [26-mer substrate, Measles NP, reference compound]
  correct C-terminus: yes

## FESQQGWFEGLFNKSPWFTT [proteasome fragment of MCF substrate]
Digestion time 1 h
  amount of peptide fragment, relative percentage of the total intensity of the peptide fragments in the spectrum: 5%

## TGRAYWKPSSSWDYTTVDNNLTTNQA [26-mer substrate 5C, Friend MuLV, reference compound]
Digestion time 1 h
  Intensity as a percentage of the total amount of intensity of the peak fragments: 60%
Listed as 5C
  C-terminal cleavage site by the 20S proteasome: cleavage after D
Listed as Friend MuLV peptide substrate
  C-terminal cleavage site by the 20S proteasome: no cleavage after valine, but dominantly after aspartic acid (D)

## PSSSWDYITVD [proteasome fragment of substrate 5C]
Digestion time 4 h
  Intensity as a percentage of the total amount of intensity of the peak fragments: 20%
Digestion time 24 h
  Intensity as a percentage of the total amount of intensity of the peak fragments: 31%

## PWFTTLISTI [proteasome fragment of MCF substrate]
Digestion time 1 h
  amount of peptide fragment, relative percentage of the total intensity of the peptide fragments in the spectrum: 7%
Digestion time 4 h
  amount of peptide fragment, relative percentage of the total intensity of the peptide fragments in the spectrum: 6%

## GEFAPGNYPAL [proteasome fragment of Sendai substrate, N-terminally elongated 11-mer]
Digestion time 1 h
  amount of peptide fragment, relative percentage of the total intensity of the peptide fragments in the spectrum: 27%
Digestion time 4 h
  amount of peptide fragment, relative percentage of the total intensity of the peptide fragments in the spectrum: 20%
Digestion time 24 h
  amount of peptide fragment, relative percentage of the total intensity of the peptide fragments in the spectrum: 38%

## ASWKPSSSWDYTTV [proteasome fragment of substrate 5B]
Digestion time 4 h
  Intensity as a percentage of the total amount of intensity of the peak fragments: 30%

## PWFTTL
Digestion time 1 h
  amount of peptide fragment, relative percentage of the total intensity of the peptide fragments in the spectrum: 13%
Digestion time 4 h
  amount of peptide fragment, relative percentage of the total intensity of the peptide fragments in the spectrum: 12%

## SWDYITV [proteasome fragment of substrate 5B]
Digestion time 4 h
  Intensity as a percentage of the total amount of intensity of the peak fragments: 41%
Digestion time 24 h
  Intensity as a percentage of the total amount of intensity of the peak fragments: 75%

## FESQQGWFEGL [proteasome fragment of MCF substrate]
Digestion time 1 h
  amount of peptide fragment, relative percentage of the total intensity of the peptide fragments in the spectrum: 6%
Digestion time 4 h
  amount of peptide fragment, relative percentage of the total intensity of the peptide fragments in the spectrum: 7%
Digestion time 24 h
  amount of peptide fragment, relative percentage of the total intensity of the peptide fragments in the spectrum: 28%

## TGRASWKPSSSWDYITV [proteasome fragment of substrate 5B]
Digestion time 1 h
  Intensity as a percentage of the total amount of intensity of the peak fragments: 14%
Digestion time 4 h
  Intensity as a percentage of the total amount of intensity of the peak fragments: 12%

## PGNYPAL [proteasome fragment of Sendai substrate]
Digestion time 1 h
  amount of peptide fragment, relative percentage of the total intensity of the peptide fragments in the spectrum: 7%
Digestion time 4 h
  amount of peptide fragment, relative percentage of the total intensity of the peptide fragments in the spectrum: 9%
Digestion time 24 h
  amount of peptide fragment, relative percentage of the total intensity of the peptide fragments in the spectrum: 14%

## ASWKPSSSWDYITVSNNLTSDQA [proteasome fragment of substrate 5B]
Digestion time 1 h
  Intensity as a percentage of the total amount of intensity of the peak fragments: 29%

## FNKSPWFTTLI [proteasome fragment of MCF substrate, 11-mer]
Digestion time 1 h
  amount of peptide fragment, relative percentage of the total intensity of the peptide fragments in the spectrum: 5%
Digestion time 4 h
  amount of peptide fragment, relative percentage of the total intensity of the peptide fragments in the spectrum: 5%
Digestion time 24 h
  amount of peptide fragment, relative percentage of the total intensity of the peptide fragments in the spectrum: 35%

## PVHGEFAPGNYPAL [proteasome fragment of Sendai substrate]
Digestion time 1 h
  amount of peptide fragment, relative percentage of the total intensity of the peptide fragments in the spectrum: 7%
Digestion time 24 h
  amount of peptide fragment, relative percentage of the total intensity of the peptide fragments in the spectrum: 10%

## FNKSPWFTTLISTI [proteasome fragment of MCF substrate]
Digestion time 1 h
  amount of peptide fragment, relative percentage of the total intensity of the peptide fragments in the spectrum: 6%
Digestion time 4 h
  amount of peptide fragment, relative percentage of the total intensity of the peptide fragments in the spectrum: 6%

## GENGRKTRSAYERMCNILKGKFQTAA [26-mer substrate, Influenza NP, reference compound]
  correct C-terminus: yes

## AYWKPSSSWDYITVDNNLTTNQA [proteasome fragment of substrate 5C]
Digestion time 1 h
  Intensity as a percentage of the total amount of intensity of the peak fragments: 6%

## FAPGNYPAL [reference compound]
Digestion time 1 h
  amount of peptide fragment, relative percentage of the total intensity of the peptide fragments in the spectrum: 3%
Digestion time 4 h
  amount of peptide fragment, relative percentage of the total intensity of the peptide fragments in the spectrum: 15%

## TIRRAYPDTNLLNDRVLRAMLKTEET [26-mer substrate, Cyclin D1, reference compound]
[1]
  correct C-terminus: yes

## PWFTTLI [proteasome fragment of MCF substrate]
Digestion time 1 h
  amount of peptide fragment, relative percentage of the total intensity of the peptide fragments in the spectrum: 13%
Digestion time 4 h
  amount of peptide fragment, relative percentage of the total intensity of the peptide fragments in the spectrum: 10%

Where two headings read alike, the source gives them in different places.
